The list shows a part of the results. Small differences around the control level are noise.

Protein sequences, listed by entry. Tags and fused reporters are not part of them. Lines headed by an entry give the natural chain unless they say otherwise; changes in a name come on top.
UniProt Q9H9P8: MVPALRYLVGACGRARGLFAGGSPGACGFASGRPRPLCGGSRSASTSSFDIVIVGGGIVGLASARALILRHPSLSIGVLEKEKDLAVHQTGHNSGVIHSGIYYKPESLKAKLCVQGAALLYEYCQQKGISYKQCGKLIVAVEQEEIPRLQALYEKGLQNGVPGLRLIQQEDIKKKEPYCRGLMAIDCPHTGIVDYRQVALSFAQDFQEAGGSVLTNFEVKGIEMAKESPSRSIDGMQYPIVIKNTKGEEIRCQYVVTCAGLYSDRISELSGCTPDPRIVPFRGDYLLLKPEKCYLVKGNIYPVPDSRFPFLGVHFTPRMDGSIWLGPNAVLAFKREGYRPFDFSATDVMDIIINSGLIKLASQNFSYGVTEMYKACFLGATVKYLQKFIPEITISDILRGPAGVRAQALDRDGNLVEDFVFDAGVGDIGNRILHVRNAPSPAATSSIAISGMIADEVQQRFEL
UniProt Q9H777: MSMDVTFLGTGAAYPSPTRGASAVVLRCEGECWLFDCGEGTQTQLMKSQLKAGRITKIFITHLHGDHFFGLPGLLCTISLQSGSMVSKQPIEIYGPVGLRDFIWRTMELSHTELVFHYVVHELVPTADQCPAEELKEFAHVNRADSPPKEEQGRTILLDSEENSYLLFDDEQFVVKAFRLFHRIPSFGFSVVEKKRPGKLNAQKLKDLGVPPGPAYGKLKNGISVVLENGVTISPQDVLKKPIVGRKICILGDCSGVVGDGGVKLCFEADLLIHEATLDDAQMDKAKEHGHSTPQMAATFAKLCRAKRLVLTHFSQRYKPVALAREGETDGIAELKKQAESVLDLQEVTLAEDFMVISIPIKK
UniProt Q9H223: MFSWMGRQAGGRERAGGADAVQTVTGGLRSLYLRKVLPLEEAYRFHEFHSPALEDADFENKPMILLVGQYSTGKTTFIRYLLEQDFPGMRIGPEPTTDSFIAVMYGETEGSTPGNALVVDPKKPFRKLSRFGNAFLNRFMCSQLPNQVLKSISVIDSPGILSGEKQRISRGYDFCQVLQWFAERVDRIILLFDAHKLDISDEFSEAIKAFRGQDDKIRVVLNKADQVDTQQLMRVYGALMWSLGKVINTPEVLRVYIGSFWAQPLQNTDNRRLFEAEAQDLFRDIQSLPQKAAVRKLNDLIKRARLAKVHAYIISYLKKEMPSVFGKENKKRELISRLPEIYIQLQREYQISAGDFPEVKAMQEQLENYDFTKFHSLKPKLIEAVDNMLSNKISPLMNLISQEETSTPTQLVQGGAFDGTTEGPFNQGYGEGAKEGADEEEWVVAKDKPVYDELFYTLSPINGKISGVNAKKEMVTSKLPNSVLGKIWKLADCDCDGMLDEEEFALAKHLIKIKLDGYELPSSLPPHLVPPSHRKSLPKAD
UniProt Q9HB90, whole entry: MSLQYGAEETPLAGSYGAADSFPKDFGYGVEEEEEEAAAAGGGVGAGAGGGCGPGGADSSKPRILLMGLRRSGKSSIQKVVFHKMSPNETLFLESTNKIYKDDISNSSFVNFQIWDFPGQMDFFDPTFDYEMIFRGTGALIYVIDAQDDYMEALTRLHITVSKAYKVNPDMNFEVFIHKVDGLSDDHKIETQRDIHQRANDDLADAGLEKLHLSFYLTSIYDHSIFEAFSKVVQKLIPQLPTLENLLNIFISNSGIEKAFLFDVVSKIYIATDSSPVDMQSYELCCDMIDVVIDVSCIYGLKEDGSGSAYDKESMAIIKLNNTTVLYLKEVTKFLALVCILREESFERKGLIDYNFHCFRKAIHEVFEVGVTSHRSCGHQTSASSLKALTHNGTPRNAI
UniProt Q9H7X3: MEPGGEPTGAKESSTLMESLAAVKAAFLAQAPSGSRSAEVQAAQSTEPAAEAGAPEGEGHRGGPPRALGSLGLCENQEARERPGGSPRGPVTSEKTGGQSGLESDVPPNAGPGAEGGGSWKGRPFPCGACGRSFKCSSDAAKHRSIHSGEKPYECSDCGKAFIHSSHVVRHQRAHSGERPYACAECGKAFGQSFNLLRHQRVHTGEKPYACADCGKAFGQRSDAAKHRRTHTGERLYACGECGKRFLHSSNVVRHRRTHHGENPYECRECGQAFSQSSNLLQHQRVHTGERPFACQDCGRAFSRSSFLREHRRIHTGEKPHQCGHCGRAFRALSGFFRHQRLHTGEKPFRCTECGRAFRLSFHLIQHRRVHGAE
UniProt Q9H4Q3: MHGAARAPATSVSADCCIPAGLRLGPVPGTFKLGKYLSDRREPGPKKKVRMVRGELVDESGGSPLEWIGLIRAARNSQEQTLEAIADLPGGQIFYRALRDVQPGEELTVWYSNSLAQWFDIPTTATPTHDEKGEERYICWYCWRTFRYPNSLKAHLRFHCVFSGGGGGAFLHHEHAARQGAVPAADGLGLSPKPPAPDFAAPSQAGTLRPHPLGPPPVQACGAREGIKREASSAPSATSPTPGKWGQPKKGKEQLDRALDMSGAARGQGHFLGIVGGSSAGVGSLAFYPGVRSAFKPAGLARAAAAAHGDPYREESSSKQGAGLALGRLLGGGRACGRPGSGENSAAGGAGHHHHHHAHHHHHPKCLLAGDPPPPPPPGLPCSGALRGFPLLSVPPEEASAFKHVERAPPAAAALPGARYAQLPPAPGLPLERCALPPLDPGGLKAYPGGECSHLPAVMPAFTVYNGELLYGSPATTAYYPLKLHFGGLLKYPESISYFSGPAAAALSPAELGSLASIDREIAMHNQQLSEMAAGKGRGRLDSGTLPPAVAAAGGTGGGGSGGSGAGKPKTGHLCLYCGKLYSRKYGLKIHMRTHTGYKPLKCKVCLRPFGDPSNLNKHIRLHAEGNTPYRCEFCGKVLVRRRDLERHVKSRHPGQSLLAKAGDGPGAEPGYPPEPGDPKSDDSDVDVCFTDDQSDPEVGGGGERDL
UniProt Q9H4I0: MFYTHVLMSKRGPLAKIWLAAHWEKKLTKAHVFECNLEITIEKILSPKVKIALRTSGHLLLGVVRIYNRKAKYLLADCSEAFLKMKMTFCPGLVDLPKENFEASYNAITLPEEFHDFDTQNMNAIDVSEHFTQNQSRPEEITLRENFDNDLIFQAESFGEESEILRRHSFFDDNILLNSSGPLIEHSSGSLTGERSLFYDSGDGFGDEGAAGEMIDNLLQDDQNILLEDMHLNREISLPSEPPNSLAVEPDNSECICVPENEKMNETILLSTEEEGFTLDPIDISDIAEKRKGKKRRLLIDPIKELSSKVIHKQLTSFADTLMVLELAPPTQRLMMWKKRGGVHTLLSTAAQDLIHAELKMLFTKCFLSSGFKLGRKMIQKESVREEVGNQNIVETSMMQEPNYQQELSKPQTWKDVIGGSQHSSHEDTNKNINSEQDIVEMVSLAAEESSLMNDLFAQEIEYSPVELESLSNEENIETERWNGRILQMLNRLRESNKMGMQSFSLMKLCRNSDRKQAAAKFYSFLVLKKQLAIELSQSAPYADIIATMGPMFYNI
UniProt Q9HBU6: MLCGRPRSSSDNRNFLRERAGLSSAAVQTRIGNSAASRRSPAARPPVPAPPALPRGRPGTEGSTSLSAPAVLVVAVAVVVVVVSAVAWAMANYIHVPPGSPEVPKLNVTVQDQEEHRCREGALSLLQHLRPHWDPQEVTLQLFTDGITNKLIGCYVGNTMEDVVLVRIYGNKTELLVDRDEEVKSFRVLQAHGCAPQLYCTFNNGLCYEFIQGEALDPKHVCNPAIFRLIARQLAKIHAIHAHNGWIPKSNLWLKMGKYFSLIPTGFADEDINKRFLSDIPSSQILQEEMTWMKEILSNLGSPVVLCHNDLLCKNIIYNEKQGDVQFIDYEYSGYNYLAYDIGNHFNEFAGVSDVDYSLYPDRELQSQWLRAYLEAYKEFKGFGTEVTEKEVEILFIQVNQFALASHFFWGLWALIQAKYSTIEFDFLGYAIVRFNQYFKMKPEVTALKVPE
UniProt Q9H7U1: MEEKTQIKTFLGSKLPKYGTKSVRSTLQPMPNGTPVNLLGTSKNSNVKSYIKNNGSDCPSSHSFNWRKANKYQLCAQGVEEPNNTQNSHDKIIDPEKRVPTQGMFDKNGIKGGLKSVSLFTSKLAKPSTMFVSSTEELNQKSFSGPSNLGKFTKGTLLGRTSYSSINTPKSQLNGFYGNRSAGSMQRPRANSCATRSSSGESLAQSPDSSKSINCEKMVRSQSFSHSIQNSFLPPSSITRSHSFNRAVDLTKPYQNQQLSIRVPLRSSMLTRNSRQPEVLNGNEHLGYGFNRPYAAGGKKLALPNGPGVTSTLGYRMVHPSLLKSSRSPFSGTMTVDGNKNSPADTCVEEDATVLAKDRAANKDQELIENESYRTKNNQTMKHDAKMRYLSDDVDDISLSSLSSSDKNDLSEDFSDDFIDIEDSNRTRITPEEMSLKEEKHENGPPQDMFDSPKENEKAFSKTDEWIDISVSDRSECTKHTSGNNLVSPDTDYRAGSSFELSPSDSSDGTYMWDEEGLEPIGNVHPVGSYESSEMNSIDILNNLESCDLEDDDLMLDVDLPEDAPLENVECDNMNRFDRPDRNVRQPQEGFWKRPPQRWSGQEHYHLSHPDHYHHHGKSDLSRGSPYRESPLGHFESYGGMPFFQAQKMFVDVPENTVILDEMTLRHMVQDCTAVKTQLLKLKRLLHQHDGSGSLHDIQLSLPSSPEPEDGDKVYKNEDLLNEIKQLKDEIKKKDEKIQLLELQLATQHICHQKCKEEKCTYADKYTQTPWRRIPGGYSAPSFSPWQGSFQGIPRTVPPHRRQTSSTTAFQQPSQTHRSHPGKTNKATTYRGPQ
UniProt Q9HC52: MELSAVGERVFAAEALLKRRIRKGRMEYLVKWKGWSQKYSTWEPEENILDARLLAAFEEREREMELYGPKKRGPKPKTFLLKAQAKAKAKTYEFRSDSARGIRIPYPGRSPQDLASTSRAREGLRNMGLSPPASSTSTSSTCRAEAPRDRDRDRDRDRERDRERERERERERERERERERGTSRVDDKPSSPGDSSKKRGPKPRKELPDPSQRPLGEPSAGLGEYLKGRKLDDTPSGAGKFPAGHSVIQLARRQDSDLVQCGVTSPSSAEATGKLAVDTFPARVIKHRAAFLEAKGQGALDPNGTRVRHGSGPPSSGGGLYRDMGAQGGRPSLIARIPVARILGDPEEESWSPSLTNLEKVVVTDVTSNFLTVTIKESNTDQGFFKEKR
UniProt Q9H9B4: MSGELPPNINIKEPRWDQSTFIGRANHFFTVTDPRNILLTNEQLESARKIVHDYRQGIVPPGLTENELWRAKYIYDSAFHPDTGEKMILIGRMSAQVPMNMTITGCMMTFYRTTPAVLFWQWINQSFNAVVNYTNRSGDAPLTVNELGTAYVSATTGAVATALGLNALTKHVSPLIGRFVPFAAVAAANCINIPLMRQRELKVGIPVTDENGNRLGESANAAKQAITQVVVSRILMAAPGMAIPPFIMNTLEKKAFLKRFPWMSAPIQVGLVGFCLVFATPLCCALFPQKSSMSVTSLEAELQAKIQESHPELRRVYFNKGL
UniProt Q9H2U2: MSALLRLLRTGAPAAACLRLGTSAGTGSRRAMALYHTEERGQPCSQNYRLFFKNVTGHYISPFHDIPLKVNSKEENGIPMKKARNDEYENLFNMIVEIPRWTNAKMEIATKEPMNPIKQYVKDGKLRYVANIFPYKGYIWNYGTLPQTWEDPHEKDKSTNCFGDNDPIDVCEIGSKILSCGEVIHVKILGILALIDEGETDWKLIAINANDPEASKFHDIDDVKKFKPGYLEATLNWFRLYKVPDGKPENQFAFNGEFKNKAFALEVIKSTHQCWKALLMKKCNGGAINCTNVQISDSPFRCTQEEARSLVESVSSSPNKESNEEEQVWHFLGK
UniProt Q9HCG1: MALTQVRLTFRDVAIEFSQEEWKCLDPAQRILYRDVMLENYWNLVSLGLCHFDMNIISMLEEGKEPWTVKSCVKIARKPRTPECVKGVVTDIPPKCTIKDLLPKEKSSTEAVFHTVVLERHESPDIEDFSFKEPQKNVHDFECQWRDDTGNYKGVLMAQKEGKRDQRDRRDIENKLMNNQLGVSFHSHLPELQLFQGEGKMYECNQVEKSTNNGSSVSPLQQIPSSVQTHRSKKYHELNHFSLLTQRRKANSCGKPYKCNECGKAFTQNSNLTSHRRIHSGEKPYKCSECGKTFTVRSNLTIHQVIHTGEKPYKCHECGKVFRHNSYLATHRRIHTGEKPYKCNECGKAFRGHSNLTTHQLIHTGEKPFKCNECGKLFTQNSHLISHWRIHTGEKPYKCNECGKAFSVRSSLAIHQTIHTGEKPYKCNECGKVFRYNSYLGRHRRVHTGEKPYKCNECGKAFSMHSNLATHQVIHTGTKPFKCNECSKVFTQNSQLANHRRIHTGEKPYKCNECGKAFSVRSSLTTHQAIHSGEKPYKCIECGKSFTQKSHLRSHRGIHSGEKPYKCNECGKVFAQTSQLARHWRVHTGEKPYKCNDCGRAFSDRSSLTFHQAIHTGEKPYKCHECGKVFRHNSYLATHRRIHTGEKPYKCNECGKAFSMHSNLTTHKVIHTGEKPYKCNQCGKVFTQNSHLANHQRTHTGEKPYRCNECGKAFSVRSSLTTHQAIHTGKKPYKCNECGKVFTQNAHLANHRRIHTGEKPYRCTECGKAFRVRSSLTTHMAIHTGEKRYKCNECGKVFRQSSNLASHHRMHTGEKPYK

Compound in this test: Cc1nc(Nc2ncc(C(=O)Nc3c(C)cccc3Cl)s2)cc(N2CCN(CCO)CC2)n1 [dasatinib]
Nature of the test: log2 fold change of tryptic peptide abundance, ligand vs vehicle (limited proteolysis) (log2 ratio); higher = more trypsin-susceptible (destabilized). To be noted: ligand concentration: 5 uM; sample: K562 cleared lysate.
As for “ZCCHC4 (peptide sequence: RPSQLLYPLENKK, peptide start residue: 156) (UniProt Q9H5U6)”, the log2 fold change is 0.455.
To “COG4 (peptide sequence: QVASKAEENLLMVLGTDMSDRR, peptide start residue: 242) (UniProt Q9H9E3)” belongs 0.158; to “L2HGDH (peptide sequence: GISYKQCGK, peptide start residue: 128) (UniProt Q9H9P8)”, 0.361; to “SP140L (peptide sequence: ADGQLVSSEKK, peptide start residue: 239) (UniProt Q9H930)”, -1.3.
For the target “TRIT1 (peptide sequence: CTLETSNQLLK, peptide start residue: 298) (UniProt Q9H3H1)”, the log2 fold change came out at 0.233.
To “ELAC1 (peptide sequence: DLGVPPGPAYGK, peptide start residue: 207) (UniProt Q9H777)” belongs 0.341.
The figure for “TBC1D17 (peptide sequence: MEGAGYRVVFEKGGVYLHTSAK, peptide start residue: 1) (UniProt Q9HA65)” is 0.277; for “UniProt Q9H7Z6 (peptide sequence: YLSELAEQPERK, peptide start residue: 126)” it is 0.113; for “SAV1 (peptide sequence: LSAPSYLAR, peptide start residue: 93) (UniProt Q9H4B6)” it is -0.148.
As for “EHD4 (peptide sequence: VVLNKADQVDTQQLMR, peptide start residue: 219) (UniProt Q9H223)”, the log2 fold change came to 0.125.
To “WDR76 (peptide sequence: MSRSGAAAEK, peptide start residue: 1) (UniProt Q9H967)” belongs 0.407; to “RRAGC (peptide sequence: ALTHNGTPR, peptide start residue: 388) (UniProt Q9HB90)”, -0.0493.
The figure for “ZNF696 (peptide sequence: AAFLAQAPSGSR, peptide start residue: 25) (UniProt Q9H7X3)” is -0.294; for “UniProt Q9H4Q3 (peptide sequence: SRHPGQSLLAK, peptide start residue: 651)” it is 0.067; for “YTHDC2 (peptide sequence: YQVFMLHSNMQTSDQKK, peptide start residue: 656) (UniProt Q9H6S0)” it is 1.15.
For the target “ACTL8 (peptide sequence: EEYGEHMR, peptide start residue: 358) (UniProt Q9H568)”, the log2 fold change turned out to be 0.0765.
To “TLNRD1 (peptide sequence: LVSVCDHCK, peptide start residue: 33) (UniProt Q9H1K6)” belongs -0.255.
The figure for “PLEKHG2 (peptide sequence: AQGAPDAPFHM, peptide start residue: 1376) (UniProt Q9H7P9)” is -0.206; for “UniProt Q9HCE0 (peptide sequence: QQLQDPEHFTNFEK, peptide start residue: 749)” it is -0.499; for “C11orf68 (peptide sequence: RMEPGEELEEEGSPGGR, peptide start residue: 41) (UniProt Q9H3H3)” it is 0.0703.
The figure for “UniProt Q9H4I0 (peptide sequence: ILQMLNR, peptide start residue: 486)” is 0.138; for “OSGEPL1 (peptide sequence: HPECSTMSGGK, peptide start residue: 213) (UniProt Q9H4B0)” it is -0.271; for “DSN1 (peptide sequence: SISVDLAESKR, peptide start residue: 123) (UniProt Q9H410)” it is -0.116.
For “PLEKHA5 (peptide sequence: STTWLHPVTGEAVVTGHRR, peptide start residue: 35) (UniProt Q9HAU0)”, the log2 fold change stood at 0.192.
To “CARD9 (peptide sequence: KVQDLTALLSSKDDFIK, peptide start residue: 129) (UniProt Q9H257)” belongs -0.227; to “ETNK1 (peptide sequence: LNVTVQDQEEHR, peptide start residue: 106) (UniProt Q9HBU6)”, 0.34.
The figure for “UniProt Q9HCE7 (peptide sequence: FVESPSQDQR, peptide start residue: 197)” is 0.35; for “GPBP1L1 (peptide sequence: HWNGSFHSR, peptide start residue: 119) (UniProt Q9HC44)” it is -0.264; for “ZFYVE1 (peptide sequence: VCDNCYEAR, peptide start residue: 650) (UniProt Q9HBF4)” it is 0.337.
To “CCSER2 (peptide sequence: HTSGNNLVSPDTDYR, peptide start residue: 480) (UniProt Q9H7U1)” belongs 0.215; to “ATG5 (peptide sequence: IYQTTTERPFIQK, peptide start residue: 189) (UniProt Q9H1Y0)”, -0.322; to “CHMP4B (peptide sequence: KQEFLEKK, peptide start residue: 39) (UniProt Q9H444)”, -0.293.
For “CBX8 (peptide sequence: KLDDTPSGAGKFPAGHSVIQLAR, peptide start residue: 230) (UniProt Q9HC52)”, the log2 fold change was -0.138.
To “SFXN1 (peptide sequence: HVSPLIGR, peptide start residue: 171) (UniProt Q9H9B4)” belongs -0.511.
To “PPA2 (peptide sequence: ILSCGEVIHVK, peptide start residue: 177) (UniProt Q9H2U2)” belongs 0.605.
To “VEZT (peptide sequence: NKDNSSNEVFPQGAEER, peptide start residue: 673) (UniProt Q9HBM0)” belongs 0.301; to “TSPYL2 (peptide sequence: MDRPDEGPPAK, peptide start residue: 1) (UniProt Q9H2G4)”, 0.462.
With “UniProt Q9HCG1 (peptide sequence: YHELNHFSLLTQR, peptide start residue: 235)”, the log2 fold change is -0.21.

Source of the values: the supplement of paper PMC12819154, “High-throughput peptide-centric local stability assay extends protein–ligand identification to membrane proteins, tissues and bacteria” (Nature Structural & Molecular Biology, 2025).
